Measured data: PubChem BioAssay AID1159584 (Peter MacCallum Cancer Centre, 2016)
In all, the deposit lists about 18,000 reagents; below is a part drawn at random. No sequences are given here. Not stated in the record: the amount of reagent, the time to read-out.

Aim: 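Knock-downs that harm CDH1-null cells more than parental MCF10A cells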 (primary screen)
Cell system: human MCF10A breast epithelial cells, parental and CDH1-null
Reagent: siRNA against human genes
Measured: 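Cell viability by CellTiter-Glo ATP luminescence, each line scaled to the mean of mock wells across plates, then CDH1-null over parental ratio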
Direction: CDH1-null / parental viability ratio: higher = CDH1-null cells survive relatively better than parental; CDH1-null viability vs mock: higher = more viable CDH1-null cells; parental viability vs mock: higher = more viable parental cells

no.	gene symbol	CDH1-null / parental viability ratio	CDH1-null viability vs mock (fraction of mock)	parental viability vs mock (fraction of mock)
1	NUMB	1.44	0.62	0.43
2	AGXT	0.73	0.53	0.73
3	ZFYVE9	0.84	0.62	0.74
4	CHRNA3	1.29	0.98	0.76
5	SNRPD2	1.3	0.3	0.23
6	KCNAB2	1.18	0.98	0.83
7	DGKQ	0.96	0.82	0.85
8	TEKT4	0.72	0.52	0.72
9	SNAP23	0.48	0.28	0.58
10	BSND	1.2	0.79	0.66
11	DEGS1	0.93	0.8	0.86
12	CDK7	0.69	0.53	0.77
13	BTN3A1	0.92	0.37	0.4
14	ADPRH	0.68	0.61	0.9
15	POMC	1.09	0.97	0.89
16	MMP21	1.55	0.68	0.44
17	PRR25	0.84	0.42	0.5
18	ESRRG	1.16	0.86	0.74
19	DLL3	1.16	0.78	0.67
20	GEN1	0.93	0.83	0.89

6 entries already listed, ordered by “CDH1-null viability vs mock (fraction of mock)”, descending.
gene symbol	CDH1-null / parental viability ratio	CDH1-null viability vs mock (fraction of mock)	parental viability vs mock (fraction of mock)
CHRNA3	1.29	0.98	0.76
KCNAB2	1.18	0.98	0.83
DGKQ	0.96	0.82	0.85
ZFYVE9	0.84	0.62	0.74
AGXT	0.73	0.53	0.73
SNRPD2	1.3	0.3	0.23

Next entries:
no.	gene symbol	CDH1-null / parental viability ratio	CDH1-null viability vs mock (fraction of mock)	parental viability vs mock (fraction of mock)
21	CSF3	1.07	0.62	0.58
22	STARD7-AS1	0.78	0.56	0.72
23	RAB11FIP4	1.19	0.75	0.63
24	HYAL1	0.85	0.57	0.67
25	ZNF233	0.87	0.66	0.76
26	PAPSS1	0.97	0.94	0.97
27	TRIM64	0.92	0.9	0.98
28	KLHL18	0.83	0.8	0.96
29	GCFC2	1.09	0.86	0.79
30	SCRIB	0.93	0.76	0.82
31	NPSR1	0.81	0.9	1.11
32	ATP8A2	0.85	0.64	0.75
33	UBC	0.91	0.1	0.11
34	SIPA1L1	0.9	0.52	0.58
35	BSPRY	1.14	1.05	0.92
36	EID2B	1.08	0.28	0.26
37	VPS29	0.88	0.92	1.04
38	MLST8	0.8	0.66	0.83
39	NMD3	0.92	0.74	0.8
40	CST9L	0.9	0.64	0.71
41	ZNF136	0.96	1.1	1.15
42	STX1A	0.96	0.82	0.85
43	FOXN3	0.93	0.8	0.86
44	DCAF13	0.9	0.53	0.59
45	LPIN2	0.91	0.6	0.66
46	SURF1	0.9	0.94	1.04
